Primary screen of a compound library

From ChEMBL document CHEMBL3988442, “University of Dundee, Small-Polar-MMV Screening Library” (2021).

The filed quantity is “Percent Effect” (%).
How 0% and 100% were set is not recorded. Most values in the screen are low, and negative values occur.
This is an unselected part of the compounds tested.

Mtb growth Cornell: 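Whole-cell assay for inhibitors of Mycobacterium tuberculosis growth, labelled Cornell in the record; the read-out is not stated. The concentration is filed as 10 mM, unlikely as a test dose, so the dose is not known. The record gives no direction; compounds strong in two other growth screens of this library score well above the rest, so higher reads as stronger inhibition. Of about 53,000 compounds tested this way, about 900 (1.7%) reached 50% or more in at least one test.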
Mtb heat-shock: 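Assay on Mycobacterium tuberculosis, filed only as a heat shock assay from Cornell; the read-out is not stated. The concentration is filed as 10 mM, unlikely as a test dose, so the dose is not known. Direction is inferred from retests: higher values go with stronger inhibition. Size under these conditions: about 69,000 compounds, about 930 of them at 50% or above in at least one test.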

{"compound": "CC(CNC(=O)N(C)Cc1ccco1)N1CCc2sccc2C1", "stereo": "stereo not drawn", "Mtb heat-shock": 12.23}
{"compound": "COc1cc(N2CCC3(CCCN3Cc3cnn(C)c3)CC2)ncn1.O=C(O)C(F)(F)F", "Mtb growth Cornell": -8.392, "Mtb heat-shock": -1.767}
{"compound": "COc1ncccc1C(=O)NC1CCOc2ccccc21", "stereo": "stereo not drawn", "Mtb growth Cornell": 2.624, "Mtb heat-shock": -6.318}
{"compound": "COCCCN1CC2(CCN(C(=O)c3ncc(F)cc3F)CC2)CC1=O", "Mtb growth Cornell": 0.8944, "Mtb heat-shock": 21.41}
{"compound": "CN1CCOC(C(=O)Nc2ccc3[nH]nnc3c2)C1", "stereo": "stereo not drawn", "Mtb growth Cornell": 37.17, "Mtb heat-shock": -25.35}
{"compound": "Cc1noc(C)c1C(=O)N(C)Cc1nc(-c2ccccn2)no1", "Mtb growth Cornell": 20.61, "Mtb heat-shock": -0.07935}
{"compound": "Cc1cc(C)c(CNC(=O)N(C)Cc2ccc(F)cc2)c(=O)[nH]1", "Mtb growth Cornell": -47.93, "Mtb heat-shock": -34.32}
{"compound": "CCS(=O)(=O)N1CCc2c(nc(C3CCCN3)nc2NC)C1.Cl", "stereo": "stereo not drawn", "Mtb growth Cornell": -16.35, "Mtb heat-shock": -28.61}
{"compound": "COc1ccc2c(c1)C(=O)N(C)C1(CCN(CC3CC3)CC1)N2", "Mtb growth Cornell": -6.53, "Mtb heat-shock": -20.71}
{"compound": "Cc1[nH]nc(CCC(=O)N2CCc3c(nc[nH]c3=O)C2)c1C", "Mtb growth Cornell": 4.453, "Mtb heat-shock": -23.84}
{"compound": "C=C(C)CN1CCC(NC(=O)Nc2cc(C(N)=O)ccc2OC)CC1", "Mtb growth Cornell": 20.91, "Mtb heat-shock": -12.51}
{"compound": "CN(C)CCCN1CC2(CCN(C(=O)C3(C)CCCCO3)CC2)OC1=O", "stereo": "stereo not drawn", "Mtb growth Cornell": 8.155, "Mtb heat-shock": 6.748}
{"compound": "CC1=C(CCN2CC[C@@H](N3CCC(O)CC3)[C@H](O)C2)C(C)(C)CCC1", "Mtb growth Cornell": 22.66, "Mtb heat-shock": 1.933}
{"compound": "CC(C)NC(=O)CN1CCC2(CC1)OCCO2", "Mtb growth Cornell": 23.9, "Mtb heat-shock": 11.27}
{"compound": "CCn1c(C)nnc1CN(C)C1CCN(CCc2ccncc2)C1", "stereo": "stereo not drawn", "Mtb heat-shock": 3.637}
{"compound": "Cn1nnc2cc(C(=O)NS(=O)(=O)Cc3ccc(F)cc3)ccc21", "Mtb heat-shock": 16.66}
{"compound": "c1ccc(Cc2noc(CN3CCCC3C3CCCCC3)n2)cc1", "stereo": "stereo not drawn", "Mtb growth Cornell": -25.27, "Mtb heat-shock": -21.26}
{"compound": "COCC(=O)N1CCCC(c2nc(N)ncc2-c2cccc(F)c2)C1", "stereo": "stereo not drawn", "Mtb growth Cornell": 3.898, "Mtb heat-shock": 6.94}
{"compound": "CC(C)N1CCCC(C(=O)N2CCc3c(nc(CC4CC4)[nH]c3=O)C2)C1", "stereo": "stereo not drawn", "Mtb growth Cornell": -36.42, "Mtb heat-shock": -14.89}
{"compound": "CN(CC(O)C1CC1)C(=O)Nc1ccc(F)c(-n2cccc2)c1", "stereo": "stereo not drawn", "Mtb heat-shock": -7.453}
{"compound": "CC(C)(C)c1nnc2n1C(C(=O)N1CCN(c3ncccn3)CC1)CC2", "stereo": "stereo not drawn", "Mtb heat-shock": -9.326}
{"compound": "Cc1nc(CNC(=O)CCN2CCN(c3ccccn3)CC2)oc1C", "Mtb growth Cornell": -33.02, "Mtb heat-shock": -34.23}
{"compound": "COc1ccc(C(=O)NCC(C)(O)CCc2ccccc2)cc1", "stereo": "stereo not drawn", "Mtb growth Cornell": -7.328, "Mtb heat-shock": 3.141}
{"compound": "CCCc1ccc(C(=O)N2CCc3c(nc(C)nc3N(C)C)C2)cc1", "Mtb growth Cornell": 12.31, "Mtb heat-shock": 24.18}

The last 3 entries again:

Compound,Mtb growth Cornell,Mtb heat-shock
Cc1nc(CNC(=O)CCN2CCN(c3ccccn3)CC2)oc1C,-33.02,-34.23
COc1ccc(C(=O)NCC(C)(O)CCc2ccccc2)cc1 (stereo not drawn),-7.328,3.141
CCCc1ccc(C(=O)N2CCc3c(nc(C)nc3N(C)C)C2)cc1,12.31,24.18